# Measurements reported in patent US12042530B2, “Target peptides for immunotherapy and diagnostics” (University of Virginia Patent Foundation, priority 2012, dated 2024).
# System: cultured melanocytes
# Experiment: HLA-A*0201-associated phosphopeptides from cultured melanocytes (mass spectrometry)
# Set-up: species or system human; key: −: not detected; ++: 5-50 copies/cell; +++: 50-500 copies/cell
row,Substance,Copies/cell
1,KLLDFGSLpSNLQV (KLLDFGSLSNLQV; phosphoserine; SITE (1)..(13): One or more of the listed amino acids can be phosphorylated as set forth in the Tables; listed as Homo sapiens) [SEQ ID NO: 402],−
2,RLLpSPLSSA (RLLSPLSSA; phosphoserine; SITE (1)..(9): One or more of the listed amino acids can be phosphorylated as set forth in the Tables; listed as Homo sapiens) [SEQ ID NO: 410],++ (5-50 copies/cell)
3,KLApSPELERL (KLASPELERL; phosphoserine; SITE (1)..(10): One or more of the listed amino acids can be phosphorylated as set forth in the Tables; listed as Homo sapiens) [SEQ ID NO: 399],−
4,AVVpSPPALHNA (AVVSPPALHNA; phosphoserine; SITE (1)..(11): One or more of the listed amino acids can be phosphorylated as set forth in the Tables; listed as Homo sapiens) [SEQ ID NO: 395],−
5,RLFpSKELRC (RLFSKELRC; phosphoserine; SITE (1)..(9): One or more of the listed amino acids can be phosphorylated as set forth in the Tables; listed as Homo sapiens) [SEQ ID NO: 409],−
6,AMAApSPHAV (AMAASPHAV; phosphoserine; SITE (1)..(9): One or more of the listed amino acids can be phosphorylated as set forth in the Tables; listed as Homo sapiens) [SEQ ID NO: 394],−
7,LMFpSPVTSL (LMFSPVTSL; phosphoserine; SITE (1)..(9): One or more of the listed amino acids can be phosphorylated as set forth in the Tables; listed as Homo sapiens) [SEQ ID NO: 407],−
8,VMFRpTPLASV (VMFRTPLASV; phosphothreonine; SITE (1)..(10): One or more of the listed amino acids can be phosphorylated as set forth in the Tables; listed as Homo sapiens) [SEQ ID NO: 425],−
9,GLLGpSPVRA (GLLGSPVRA; phosphoserine; SITE (1)..(9): One or more of the listed amino acids can be phosphorylated as set forth in the Tables; listed as Homo sapiens) [SEQ ID NO: 396],−
10,RLSpSPLHFV (RLSSPLHFV; phosphoserine; SITE (1)..(9): One or more of the listed amino acids can be phosphorylated as set forth in the Tables; listed as Homo sapiens) [SEQ ID NO: 412],+++ (50-500 copies/cell)
11,SMpTRSPPRV (SMTRSPPRV; phosphothreonine; SITE (1)..(9): One or more of the listed amino acids can be phosphorylated as set forth in the Tables; listed as Homo sapiens) [SEQ ID NO: 421],+++ (50-500 copies/cell)
12,RLDpSYVRSL [SEQ ID NO: 408],++ (5-50 copies/cell)
13,RTLpSHISEA (RTLSHISEA; phosphoserine; SITE (1)..(9): One or more of the listed amino acids can be phosphorylated as set forth in the Tables; listed as Homo sapiens) [SEQ ID NO: 417],−
14,RQDpSTPGKVFL (RQDSTPGKVFL; phosphoserine; SITE (1)..(11): One or more of the listed amino acids can be phosphorylated as set forth in the Tables; listed as Homo sapiens) [SEQ ID NO: 413],++ (5-50 copies/cell)
